According to paper PMC4467128 (Oncotarget, 2014):

What was measured:
Ramos cells = experiment: MTT cell viability assay, Ramos B-cell lymphoma cells; format: cell-based; details: Homo sapiens, 24 h, mean ± SEM, read-out: IC50 (growth inhibition)
Method: (§1) Two fast-growing malignant B cell lymphoma (Burkitt lymphoma) cell lines and human umbilical vein endothelial cells (HUVEC) were used. Ramos and HUVEC cells were purchased from American Type Culture Collection (Manassas, VA, USA) and BJAB cells were a kind gift from Professor Ping-Ning Hsu (National Taiwan University Hospital and National Taiwan University, College of Medicine, Taipei, Taiwan). Ramos and BJAB cells were cultured in RPMI-1640 with 10% heat-inactivated fetal bovine serum and penicillin (100 units/ml)/streptomycin (100 μg/ml) while HUVEC was cultured in M199 with 20% heat-inactivated fetal bovine serum (v/v) and penicillin (100 units/mL)/streptomycin (100 μg/mL). All cells were maintained in humidified air containing 5% CO2 at 37°C. Cell density was maintained between 1×10^5 and 1×10^6 cell/ml and passaged every 2 to 3 days.
(§2) Cell viability was assessed by MTT assay. […] After the treatment, 100 μl of 0.5 mg/ml 3-(4,5-Dimethylthiazol-2-yl)-2,5-diphenyl-tetrazolium bromide (MTT) were added to each well and incubated at 37°C to stained cells forming an insoluble blue formazan product. After 1 h incubation, 100 μl of extraction reagent (0.1M sodium acetate buffer or DMSO) were added to each well and mix thoroughly to lyse cells. The plates were then measured at 550 nm using an enzyme-linked immunosorbent assay (ELISA) reader (Packard, Meriden, CT, USA).

BJAB cells = experiment: MTT cell viability assay, BJAB B-cell lymphoma cells; format: cell-based; details: Homo sapiens, 24 h, mean ± SEM, read-out: IC50 (growth inhibition)
Method: as §1, §2

O=C(CCCCCCC(=O)Nc1ccccc1)NO [SAHA, reference compound]
IC50 (Ramos cells): 2.61 ± 0.4 µM | IC50 (BJAB cells): 44.2 ± 10 µM
